Experimental data taken from the supplement of paper PMC10849652.
This is one part of the list.

Chains of the proteins cited; added tags and fusions are not shown. Lines headed by an entry give the natural chain unless they say otherwise; changes in a name come on top.
UniProt Q08426: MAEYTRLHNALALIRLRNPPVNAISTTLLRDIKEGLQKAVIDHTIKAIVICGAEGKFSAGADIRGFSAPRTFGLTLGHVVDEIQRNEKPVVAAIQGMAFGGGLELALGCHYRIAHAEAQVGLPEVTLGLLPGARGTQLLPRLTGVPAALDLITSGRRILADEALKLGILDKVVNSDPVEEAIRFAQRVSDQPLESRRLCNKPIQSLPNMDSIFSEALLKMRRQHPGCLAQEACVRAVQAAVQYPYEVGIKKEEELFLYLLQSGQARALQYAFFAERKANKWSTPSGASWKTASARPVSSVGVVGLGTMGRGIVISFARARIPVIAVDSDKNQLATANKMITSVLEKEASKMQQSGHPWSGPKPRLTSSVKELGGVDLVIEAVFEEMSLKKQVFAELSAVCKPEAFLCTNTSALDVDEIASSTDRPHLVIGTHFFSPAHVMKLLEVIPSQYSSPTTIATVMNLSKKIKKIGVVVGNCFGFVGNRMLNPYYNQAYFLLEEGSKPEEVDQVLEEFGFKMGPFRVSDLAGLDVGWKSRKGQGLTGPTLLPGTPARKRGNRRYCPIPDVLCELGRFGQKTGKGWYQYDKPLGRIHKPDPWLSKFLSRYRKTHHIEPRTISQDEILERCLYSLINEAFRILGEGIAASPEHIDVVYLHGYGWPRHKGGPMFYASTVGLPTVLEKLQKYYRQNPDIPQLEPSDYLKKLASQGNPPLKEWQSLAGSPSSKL
UniProt P29692: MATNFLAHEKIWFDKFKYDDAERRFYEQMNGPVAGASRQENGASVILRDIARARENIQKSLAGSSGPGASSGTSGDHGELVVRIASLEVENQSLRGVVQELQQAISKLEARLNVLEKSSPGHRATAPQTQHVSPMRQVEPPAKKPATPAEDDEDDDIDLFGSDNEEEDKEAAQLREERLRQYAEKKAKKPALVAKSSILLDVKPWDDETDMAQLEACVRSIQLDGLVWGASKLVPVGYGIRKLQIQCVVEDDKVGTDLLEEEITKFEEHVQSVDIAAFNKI
UniProt Q9P2X0: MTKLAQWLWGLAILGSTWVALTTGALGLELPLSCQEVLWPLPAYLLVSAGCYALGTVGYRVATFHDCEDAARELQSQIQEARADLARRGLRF
UniProt Q9BZG8: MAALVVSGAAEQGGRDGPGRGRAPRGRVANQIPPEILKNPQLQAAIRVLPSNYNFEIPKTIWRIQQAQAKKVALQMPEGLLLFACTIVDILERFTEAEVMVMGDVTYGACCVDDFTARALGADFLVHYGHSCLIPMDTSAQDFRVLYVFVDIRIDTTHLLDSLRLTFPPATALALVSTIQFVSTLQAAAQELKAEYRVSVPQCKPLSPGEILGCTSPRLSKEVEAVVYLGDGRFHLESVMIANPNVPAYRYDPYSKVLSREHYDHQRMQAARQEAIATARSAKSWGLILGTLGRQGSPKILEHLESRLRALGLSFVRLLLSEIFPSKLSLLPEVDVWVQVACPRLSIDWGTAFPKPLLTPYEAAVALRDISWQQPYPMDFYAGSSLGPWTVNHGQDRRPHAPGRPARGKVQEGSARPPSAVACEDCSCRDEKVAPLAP
UniProt P63167, whole entry, looked up: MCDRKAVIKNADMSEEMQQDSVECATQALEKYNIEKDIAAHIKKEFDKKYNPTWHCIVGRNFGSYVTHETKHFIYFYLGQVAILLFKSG
UniProt Q8NBA8: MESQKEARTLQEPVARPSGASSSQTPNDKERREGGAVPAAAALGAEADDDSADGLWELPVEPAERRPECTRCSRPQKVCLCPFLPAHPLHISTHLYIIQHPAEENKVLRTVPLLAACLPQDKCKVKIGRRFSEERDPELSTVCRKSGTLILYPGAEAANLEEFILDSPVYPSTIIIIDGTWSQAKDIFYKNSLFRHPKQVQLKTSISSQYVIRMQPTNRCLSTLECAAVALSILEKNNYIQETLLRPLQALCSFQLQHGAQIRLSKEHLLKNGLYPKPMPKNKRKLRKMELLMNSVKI
UniProt Q02487, whole entry, looked up: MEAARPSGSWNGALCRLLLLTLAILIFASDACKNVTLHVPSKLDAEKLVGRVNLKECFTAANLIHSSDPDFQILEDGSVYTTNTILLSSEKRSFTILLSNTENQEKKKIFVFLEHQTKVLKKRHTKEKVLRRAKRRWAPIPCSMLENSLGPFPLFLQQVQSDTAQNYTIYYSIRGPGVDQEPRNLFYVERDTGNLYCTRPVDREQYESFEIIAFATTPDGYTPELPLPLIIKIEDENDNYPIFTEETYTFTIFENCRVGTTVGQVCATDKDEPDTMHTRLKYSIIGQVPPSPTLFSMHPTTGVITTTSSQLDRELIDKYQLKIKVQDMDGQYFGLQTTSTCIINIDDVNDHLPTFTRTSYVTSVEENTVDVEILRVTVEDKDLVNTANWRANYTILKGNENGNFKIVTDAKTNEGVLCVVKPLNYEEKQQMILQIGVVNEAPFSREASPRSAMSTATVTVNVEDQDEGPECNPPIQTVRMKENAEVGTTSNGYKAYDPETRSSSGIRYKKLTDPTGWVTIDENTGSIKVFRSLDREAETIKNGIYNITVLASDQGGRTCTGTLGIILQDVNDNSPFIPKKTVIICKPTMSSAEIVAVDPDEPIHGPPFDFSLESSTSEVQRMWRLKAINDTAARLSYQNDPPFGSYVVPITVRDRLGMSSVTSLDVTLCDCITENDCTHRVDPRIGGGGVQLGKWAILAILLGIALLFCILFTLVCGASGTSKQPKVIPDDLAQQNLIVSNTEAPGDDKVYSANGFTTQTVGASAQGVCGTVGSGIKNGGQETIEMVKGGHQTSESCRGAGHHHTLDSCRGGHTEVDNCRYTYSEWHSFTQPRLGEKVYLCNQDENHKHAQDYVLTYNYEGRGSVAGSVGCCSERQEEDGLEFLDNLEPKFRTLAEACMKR
UniProt Q6XUX3: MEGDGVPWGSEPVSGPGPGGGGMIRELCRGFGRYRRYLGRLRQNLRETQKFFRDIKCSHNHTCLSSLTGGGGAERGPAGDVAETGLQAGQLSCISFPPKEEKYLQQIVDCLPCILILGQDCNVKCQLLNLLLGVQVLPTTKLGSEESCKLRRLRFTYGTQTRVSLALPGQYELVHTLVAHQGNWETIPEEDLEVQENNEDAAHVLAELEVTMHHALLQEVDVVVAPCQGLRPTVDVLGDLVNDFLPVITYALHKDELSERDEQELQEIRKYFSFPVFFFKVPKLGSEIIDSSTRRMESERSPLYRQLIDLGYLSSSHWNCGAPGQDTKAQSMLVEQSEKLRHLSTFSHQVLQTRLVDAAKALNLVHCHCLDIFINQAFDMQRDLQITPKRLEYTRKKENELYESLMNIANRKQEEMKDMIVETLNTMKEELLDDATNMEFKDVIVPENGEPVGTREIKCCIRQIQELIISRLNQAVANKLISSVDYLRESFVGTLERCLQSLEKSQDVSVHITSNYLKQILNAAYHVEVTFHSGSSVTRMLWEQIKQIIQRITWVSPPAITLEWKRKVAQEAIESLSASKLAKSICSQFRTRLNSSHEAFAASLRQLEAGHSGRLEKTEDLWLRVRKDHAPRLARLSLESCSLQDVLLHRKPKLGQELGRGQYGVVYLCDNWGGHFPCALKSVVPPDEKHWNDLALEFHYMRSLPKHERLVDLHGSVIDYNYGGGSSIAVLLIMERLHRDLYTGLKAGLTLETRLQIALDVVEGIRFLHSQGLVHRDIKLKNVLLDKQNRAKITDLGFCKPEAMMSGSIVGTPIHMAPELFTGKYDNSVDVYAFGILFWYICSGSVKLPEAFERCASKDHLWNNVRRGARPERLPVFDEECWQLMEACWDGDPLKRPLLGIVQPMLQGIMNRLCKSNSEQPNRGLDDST
UniProt Q8N7B9: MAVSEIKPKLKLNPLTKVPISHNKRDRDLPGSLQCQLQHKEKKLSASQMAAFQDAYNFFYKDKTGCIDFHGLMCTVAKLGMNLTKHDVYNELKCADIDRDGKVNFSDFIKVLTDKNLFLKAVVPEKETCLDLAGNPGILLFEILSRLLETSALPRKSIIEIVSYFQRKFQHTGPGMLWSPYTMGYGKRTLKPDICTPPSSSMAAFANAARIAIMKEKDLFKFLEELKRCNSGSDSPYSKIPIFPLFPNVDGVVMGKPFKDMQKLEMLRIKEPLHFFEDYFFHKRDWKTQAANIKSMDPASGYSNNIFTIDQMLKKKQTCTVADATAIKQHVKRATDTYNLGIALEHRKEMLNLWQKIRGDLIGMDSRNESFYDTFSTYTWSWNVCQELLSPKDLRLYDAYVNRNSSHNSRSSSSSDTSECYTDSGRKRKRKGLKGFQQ
UniProt Q7Z2Z2: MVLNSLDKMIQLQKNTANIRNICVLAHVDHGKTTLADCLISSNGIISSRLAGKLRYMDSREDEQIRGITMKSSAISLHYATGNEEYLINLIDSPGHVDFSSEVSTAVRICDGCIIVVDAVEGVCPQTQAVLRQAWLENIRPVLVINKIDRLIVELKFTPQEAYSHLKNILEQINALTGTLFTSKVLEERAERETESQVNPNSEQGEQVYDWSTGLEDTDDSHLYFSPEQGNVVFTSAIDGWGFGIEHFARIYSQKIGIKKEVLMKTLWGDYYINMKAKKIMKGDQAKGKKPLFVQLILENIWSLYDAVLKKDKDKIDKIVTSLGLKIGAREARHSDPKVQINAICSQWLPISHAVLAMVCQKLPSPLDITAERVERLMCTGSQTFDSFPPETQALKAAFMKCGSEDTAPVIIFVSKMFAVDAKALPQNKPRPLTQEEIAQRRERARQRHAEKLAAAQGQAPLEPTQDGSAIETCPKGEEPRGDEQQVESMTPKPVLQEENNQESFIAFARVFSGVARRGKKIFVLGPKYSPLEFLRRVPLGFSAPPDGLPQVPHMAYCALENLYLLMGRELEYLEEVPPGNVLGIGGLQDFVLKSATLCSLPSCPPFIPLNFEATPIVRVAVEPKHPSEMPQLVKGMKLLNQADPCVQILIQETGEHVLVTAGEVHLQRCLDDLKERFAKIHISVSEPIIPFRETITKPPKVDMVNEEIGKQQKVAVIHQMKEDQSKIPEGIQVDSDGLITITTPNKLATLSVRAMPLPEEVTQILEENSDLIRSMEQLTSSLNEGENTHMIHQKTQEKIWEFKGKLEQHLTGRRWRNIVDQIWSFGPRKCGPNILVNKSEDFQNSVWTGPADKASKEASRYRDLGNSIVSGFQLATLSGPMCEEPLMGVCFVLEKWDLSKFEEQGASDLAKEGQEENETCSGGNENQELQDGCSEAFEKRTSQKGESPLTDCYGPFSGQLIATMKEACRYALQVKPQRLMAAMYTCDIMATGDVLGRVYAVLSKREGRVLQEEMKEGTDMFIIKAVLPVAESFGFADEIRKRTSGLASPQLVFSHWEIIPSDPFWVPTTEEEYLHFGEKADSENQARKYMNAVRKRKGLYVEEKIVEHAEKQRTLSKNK
UniProt P51808: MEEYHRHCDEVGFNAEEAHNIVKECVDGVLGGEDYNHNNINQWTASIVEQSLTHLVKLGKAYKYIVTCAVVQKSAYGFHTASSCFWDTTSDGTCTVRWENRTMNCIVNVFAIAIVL
UniProt Q8WTR2: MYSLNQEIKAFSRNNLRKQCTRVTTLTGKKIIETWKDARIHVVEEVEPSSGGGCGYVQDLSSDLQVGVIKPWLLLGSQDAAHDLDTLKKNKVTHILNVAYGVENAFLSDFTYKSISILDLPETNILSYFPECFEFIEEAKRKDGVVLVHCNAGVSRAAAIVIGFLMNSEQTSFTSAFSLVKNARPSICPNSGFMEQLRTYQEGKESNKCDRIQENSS
UniProt Q86UW9: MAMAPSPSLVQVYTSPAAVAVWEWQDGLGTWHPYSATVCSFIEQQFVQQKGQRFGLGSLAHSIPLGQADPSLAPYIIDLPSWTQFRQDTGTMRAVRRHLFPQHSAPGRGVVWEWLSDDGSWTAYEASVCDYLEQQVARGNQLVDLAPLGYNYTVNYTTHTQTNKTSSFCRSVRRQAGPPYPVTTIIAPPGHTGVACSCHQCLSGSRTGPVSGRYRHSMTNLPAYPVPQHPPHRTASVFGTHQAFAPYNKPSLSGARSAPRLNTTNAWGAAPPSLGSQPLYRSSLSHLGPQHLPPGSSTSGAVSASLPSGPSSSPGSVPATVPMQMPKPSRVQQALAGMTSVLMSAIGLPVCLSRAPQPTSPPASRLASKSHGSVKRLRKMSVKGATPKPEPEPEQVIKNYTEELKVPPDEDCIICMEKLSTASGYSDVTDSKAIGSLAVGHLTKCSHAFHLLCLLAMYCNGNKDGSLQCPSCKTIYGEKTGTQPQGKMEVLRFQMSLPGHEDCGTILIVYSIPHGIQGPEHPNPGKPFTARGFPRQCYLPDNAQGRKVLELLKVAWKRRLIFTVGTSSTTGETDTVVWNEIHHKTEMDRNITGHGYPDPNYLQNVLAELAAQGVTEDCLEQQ
UniProt Q5VUJ9: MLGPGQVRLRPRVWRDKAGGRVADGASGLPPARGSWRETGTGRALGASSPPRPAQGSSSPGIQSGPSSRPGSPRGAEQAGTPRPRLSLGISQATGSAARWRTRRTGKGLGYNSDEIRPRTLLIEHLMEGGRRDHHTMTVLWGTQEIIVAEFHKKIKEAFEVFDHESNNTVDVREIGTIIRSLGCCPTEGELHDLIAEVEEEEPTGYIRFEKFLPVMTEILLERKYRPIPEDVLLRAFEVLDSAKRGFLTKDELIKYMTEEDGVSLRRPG

Compound: O=C(CCCCCCC(=O)Nc1ccccc1)NO [vorinostat]
Assay: log2 fold change, soluble protein after heating vs DMSO (PISA); higher = thermal stabilisation; K562 lysate, 10 uM; active = over 0.2 and 3.5 SD of the protein, either way, in both replicates (recomputed)
Outline: (§1)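 Values give the log-two fold change in thermal stability against solvent controls, from duplicates. Crude K562 extract at 1 mg/mL protein, made by dounce homogenisation in PBS pH 7.4 with 1 mM MgCl2, was treated with 10 μM compound for 30 min. After 3 min heating across 48°C-58°C, aliquots were pooled, adjusted to 0.5% NP-40 at 4°C and centrifuged at 21,000xg for 90 min. The supernatant was measured by TMTpro 16plex LC-MS/MS with channel sums equalised.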

| Target | log2 fold change |
| --- | --- |
| EHHADH (UniProt Q08426) | active: 0.706 |
| EBAG9 isoform 2 (UniProt O00559) | inactive: 0.218 |
| EGLN1 (UniProt Q9GZT9) | active: -0.395 |
| EEF1D isoform 3 (UniProt P29692) | inactive: 0.07 |
| EID1 (UniProt Q9Y6B2) | inactive: -0.192 |
| DTX3L (UniProt Q8TDB6) | inactive: -0.067 |
| DPP3 (UniProt Q9NY33) | inactive: 0.095 |
| DPM3 isoform 2 (UniProt Q9P2X0) | inactive: 0.029 |
| DPH1 (UniProt Q9BZG8) | inactive: 0.064 |
| DYNC2H1 isoform 2 (UniProt Q8NCM8) | inactive: 0.037 |
| DYNC1LI2 (UniProt O43237) | inactive: 0.097 |
| DYNLL1 (UniProt P63167) | inactive: -0.089 |
| DTWD2 (UniProt Q8NBA8) | inactive: -0.221 |
| DYRK1A isoform 2 (UniProt Q13627) | inactive: -0.222 |
| DZIP3 (UniProt Q86Y13) | inactive: -0.298 |
| DSC2 (UniProt Q02487) | inactive: 0.146 |
| DSTYK (UniProt Q6XUX3) | inactive: -0.164 |
| EEF1AKMT1 (UniProt Q8WVE0) | inactive: -0.098 |
| DUSP13 isoform 4 (UniProt Q9UII6) | inactive: 0.147 |
| EFCAB3 (UniProt Q8N7B9) | inactive: -0.159 |
| DYNC1I1 (UniProt O14576) | inactive: 0.182 |
| EFL1 (UniProt Q7Z2Z2) | inactive: -0.105 |
| DSG2 (UniProt Q14126) | inactive: 0.119 |
| DYNLT3 (UniProt P51808) | inactive: 0.226 |
| DUSP19 (UniProt Q8WTR2) | inactive: -0.354 |
| EFR3A (UniProt Q14156) | inactive: -0.261 |
| DTX2 (UniProt Q86UW9) | inactive: -0.082 |
| DST isoform 3 (UniProt Q03001) | inactive: -0.041 |
| DUSP14 (UniProt O95147) | inactive: -0.33 |
| EFCAB2 isoform 2 (UniProt Q5VUJ9) | inactive: 0.156 |

Compound: O=C(O)c1ccc2c(c1)nc(Nc1cccc(Cl)c1)c1ccncc12 [silmitasertib]
Assay: as above
Outline: as §1

| Target | log2 fold change |
| --- | --- |
| EHHADH (UniProt Q08426) | inactive: -0.035 |
| EBAG9 isoform 2 (UniProt O00559) | inactive: -0.102 |
| EGLN1 (UniProt Q9GZT9) | inactive: 0.025 |
| EEF1D isoform 3 (UniProt P29692) | inactive: -0.081 |
| EID1 (UniProt Q9Y6B2) | inactive: 0.191 |
| DTX3L (UniProt Q8TDB6) | inactive: -0.017 |
| DPP3 (UniProt Q9NY33) | inactive: 0.021 |
| DPM3 isoform 2 (UniProt Q9P2X0) | inactive: 0.022 |
| DPH1 (UniProt Q9BZG8) | inactive: 0 |
| DYNC2H1 isoform 2 (UniProt Q8NCM8) | inactive: -0.015 |
| DYNC1LI2 (UniProt O43237) | inactive: -0.071 |
| DYNLL1 (UniProt P63167) | inactive: -0.017 |
| DTWD2 (UniProt Q8NBA8) | inactive: 0.107 |
| DYRK1A isoform 2 (UniProt Q13627) | inactive: -0.035 |
| DZIP3 (UniProt Q86Y13) | inactive: 0.077 |
| DSC2 (UniProt Q02487) | inactive: 0.07 |
| DSTYK (UniProt Q6XUX3) | inactive: 0.216 |
| EEF1AKMT1 (UniProt Q8WVE0) | inactive: 0 |
| DUSP13 isoform 4 (UniProt Q9UII6) | inactive: -0.062 |
| EFCAB3 (UniProt Q8N7B9) | inactive: 0.095 |
| DYNC1I1 (UniProt O14576) | inactive: 0.241 |
| EFL1 (UniProt Q7Z2Z2) | inactive: 0.015 |
| DSG2 (UniProt Q14126) | inactive: 0.022 |
| DYNLT3 (UniProt P51808) | inactive: -0.044 |
| DUSP19 (UniProt Q8WTR2) | inactive: -0.064 |
| EFR3A (UniProt Q14156) | inactive: 0.084 |
| DTX2 (UniProt Q86UW9) | inactive: 0.014 |
| DST isoform 3 (UniProt Q03001) | inactive: 0.087 |
| DUSP14 (UniProt O95147) | inactive: -0.129 |
| EFCAB2 isoform 2 (UniProt Q5VUJ9) | inactive: 0.096 |

Compound: O=C1NC(=O)C(c2cnc3ccccn23)=C1c1cn2c3c(cc(F)cc13)CN(C(=O)N1CCCCC1)CC2
Assay: as above
Outline: as §1

| Target | log2 fold change |
| --- | --- |
| EHHADH (UniProt Q08426) | inactive: -0.048 |
| EBAG9 isoform 2 (UniProt O00559) | inactive: 0.096 |
| EGLN2 (UniProt Q96KS0) | inactive: 0.03 |
| EGLN1 (UniProt Q9GZT9) | inactive: -0.024 |
| EEF1D isoform 3 (UniProt P29692) | inactive: 0.2 |
| DPH3 (UniProt Q96FX2) | inactive: 0.059 |
| DTX3L (UniProt Q8TDB6) | inactive: -0.039 |
| DYNC2LI1 (UniProt Q8TCX1) | inactive: 0.165 |
| DPP3 (UniProt Q9NY33) | inactive: 0.042 |
| DPM3 isoform 2 (UniProt Q9P2X0) | inactive: 0.014 |
| DPH1 (UniProt Q9BZG8) | inactive: 0.001 |
| DSCAML1 (UniProt Q8TD84) | inactive: 0.016 |
| DRAM2 (UniProt Q6UX65) | inactive: -0.014 |
| DYNC1LI2 (UniProt O43237) | inactive: 0.031 |
| DYNLL1 (UniProt P63167) | inactive: 0.025 |
| DTWD2 (UniProt Q8NBA8) | inactive: -0.023 |
| DYRK1A isoform 2 (UniProt Q13627) | inactive: 0.002 |
| DSC2 (UniProt Q02487) | inactive: -0.115 |
| DSTYK (UniProt Q6XUX3) | inactive: -0.006 |
| EEF1AKMT1 (UniProt Q8WVE0) | inactive: 0.287 |
| EFCAB3 (UniProt Q8N7B9) | inactive: -0.09 |
| EFL1 (UniProt Q7Z2Z2) | inactive: -0.003 |
| DSG2 (UniProt Q14126) | inactive: 0.033 |
| DYNLT3 (UniProt P51808) | inactive: -0.008 |
| DUSP19 (UniProt Q8WTR2) | inactive: -0.093 |
| DPYSL3 isoform 2 (UniProt Q14195) | inactive: 0.028 |
| DTX2 (UniProt Q86UW9) | inactive: 0.021 |
| EEPD1 (UniProt Q7L9B9) | inactive: 0.112 |
| EFCAB2 isoform 2 (UniProt Q5VUJ9) | inactive: -0.124 |
